# Test results published in PubChem BioAssay AID2517 (National Center for Advancing Translational Sciences (NCATS), 2010).
# Chains of the proteins cited; added tags and fusions are not shown.
# UniProt P27695, whole entry, looked up: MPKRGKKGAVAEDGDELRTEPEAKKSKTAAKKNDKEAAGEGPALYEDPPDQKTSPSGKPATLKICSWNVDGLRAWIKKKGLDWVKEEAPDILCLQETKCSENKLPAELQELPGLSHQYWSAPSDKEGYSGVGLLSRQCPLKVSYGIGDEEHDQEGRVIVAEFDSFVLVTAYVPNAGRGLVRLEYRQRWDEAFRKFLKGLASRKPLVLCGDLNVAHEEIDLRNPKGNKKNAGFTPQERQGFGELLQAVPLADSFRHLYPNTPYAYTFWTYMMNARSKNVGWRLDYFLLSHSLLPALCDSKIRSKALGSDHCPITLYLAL
# Screen size: about 350,000 compounds; about 1,200 (0.34%) were called active. This list was built around the results that the source calls inconclusive (neither active nor inactive); the mix of calls is not that of the screen. The call rests on the fitted dose curve; in most records, active means well fitted inhibition curve with a large enough effect; inconclusive means small, poorly fitted or top-dose-only effect; inactive means no such curve, though single readings can be large or run the other way. Potencies of inconclusive entries are doubtful fits and often do not repeat.
# Target: DNA repair nuclease/redox regulator APEX1 (Homo sapiens) (UniProt P27695)
# Assay: qHTS Assay for Inhibitors of the Human Apurinic/apyrimidinic Endonuclease 1 (APE1); further: nearly all actives have a fitted effect of over 55% in size;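 on activity change, negative = inhibition: plate controls were vehicle for no effect and reference inhibitor for full effect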
# Conditions: recombinant APE1, TAMRA/BHQ-2 abasic DNA cleavage fluorescence; activity change, negative = inhibition: at 65.8 µM (top of the series)
# How it was run: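 Endonuclease cleavage of a quenched abasic-site DNA duplex (50 nM) by APE1 (0.75 nM) was tracked by TAMRA dequenching. Compounds were preincubated with enzyme 15 min at room temperature; data normalized to buffer-only and DMSO wells plus NSC13755 control.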
# Potency means the concentration at half of the fitted maximal effect.
SMILES,Potency,"activity change, negative = inhibition"
COc1ccc(-n2c(C)cc(C(=O)CSc3nn4c(=O)c(C(C)(C)C)nnc4s3)c2C)cc1,"inconclusive: 28.2 µM [inhibitor, single point]",–
Cc1cc(C)c(C)c(S(=O)(=O)N2CCNCC2)c1C,"inconclusive: 20 µM [inhibitor, single point]",–
CCCCCCCCCCCCCCCC(=O)N[C@@H](COP(=O)(O)O)C(=O)O,inactive,–
Fc1ccc(OCc2nc(-c3cccs3)no2)cc1,"inconclusive: 22.4 µM [inhibitor, partial curve, poor fit]",–
CS(=O)(=O)N(CC(=O)N/N=C/c1cc2c(cc1Br)OCO2)c1ccccc1Br,"inconclusive: 3.16 µM [inhibitor, partial curve, poor fit]",–
CCc1nc(Nc2ccc(N3CCN(C(C)=O)CC3)cc2)c2oc3ccccc3c2n1,"inconclusive: 22.4 µM [inhibitor, partial curve]",–
CC(C)(C)OC(=O)N1CCC(C(N)=O)CC1,"inconclusive: 50.1 µM [inhibitor, partial curve, poor fit]",–
COC/C=C/C1=CC2=CC(=O)C(C)(OC(=O)c3cnc4ccccc4n3)C(=O)C2=CN1CCc1ccccn1 (stereo not given),–,inactive: -1.9% [at 12.4 µM]
CC1CCC(NC(=S)NCCN(C)C)CC1 (stereo not given),"inconclusive: 0.631 µM [inhibitor, single point]",–
CC(NC(=O)C1CCCCC1)C(c1cccs1)N1CCN(C)CC1 (stereo not given),"inconclusive: 5.62 µM [inhibitor, single point]",–
COc1ccc2ccccc2c1-c1csc(N)n1,"inconclusive: 5.32 µM [inhibitor, single point]",–
COc1cccc(N2CC34C=CC(O3)C(C(=O)O)C4C2=O)c1 (stereo not given),inactive,–
CCN(CCCCO)c1nc(C)nc2c1c(C)c(C)n2-c1c(C)cc(C)cc1C,inactive,–
NC(=O)c1ccccc1,"inconclusive: 0.891 µM [inhibitor, full curve, poor fit]",–
COc1ccc2nc(NC(=O)c3cc(C)oc3C)sc2c1,inactive,–
O=C(Cn1nc(C(F)(F)F)c2c1CCCC2)Nc1ccc2c(c1)OCO2,"inconclusive: 8.91 µM [inhibitor, single point]",–
O=C(CCN1C(=O)C2CC=C(Cl)CC2C1=O)N1CCCCC1 (stereo not given),"inconclusive: 0.0355 µM [inhibitor, full curve, poor fit]",–
Cc1ccc(NC(=O)CSc2nc(N)cc(=O)[nH]2)cc1Cl,active: 35.5 µM,–
Cc1cccc(NC(=O)c2cc(NC(=O)c3ccco3)ccc2N2CCCCC2)c1,"inconclusive: 7.08 µM [inhibitor, single point]",–
CCOC(=O)c1[nH]c2cc3c(cc2c1NC(=O)CN1CCC2(CC1)OCCO2)OCO3,"inconclusive: 7.08 µM [inhibitor, single point]",–
COc1ccccc1N(C)S(=O)(=O)c1ccc(C(=O)OCC(=O)Nc2ccccc2F)cc1,"inconclusive: 5.62 µM [inhibitor, full curve, poor fit]",–
CSCC[C@H](NS(=O)(=O)c1ccc(C(C)=O)cc1)c1nnc2ccccn12,"inconclusive: 21.2 µM [inhibitor, partial curve]",–

# A draw from above in order of SMILES length, descending:
SMILES,Potency,"activity change, negative = inhibition"
COC/C=C/C1=CC2=CC(=O)C(C)(OC(=O)c3cnc4ccccc4n3)C(=O)C2=CN1CCc1ccccn1 (stereo not given),–,inactive: -1.9% [at 12.4 µM]
CSCC[C@H](NS(=O)(=O)c1ccc(C(C)=O)cc1)c1nnc2ccccn12,"inconclusive: 21.2 µM [inhibitor, partial curve]",–
COc1ccc2nc(NC(=O)c3cc(C)oc3C)sc2c1,inactive,–

# Next structures follow:

SMILES,Potency,"activity change, negative = inhibition"
COc1ccccc1NC(=O)N1CCN(c2cc(-c3ccccc3)nc3ncnn23)CC1,inactive,–
COc1ccc2cc(/C=C3\SC(=S)NC3=O)c(N3CCOCC3)nc2c1,"inconclusive: 1.78 µM [inhibitor, partial curve]",–
Cc1nnn(C23CC4CC(CC(CC(=O)Nc5ccc(C)c(Cl)c5)(C4)C2)C3)n1,"inconclusive: 5.01 µM [inhibitor, single point]",–
O=S(=O)(c1ccc(Nc2ccc(-c3ccc4c(c3)OCCO4)nn2)cc1)N1CCCC1,"inconclusive: 0.199 µM [inhibitor, full curve]",–
O=C(c1ccc(F)cc1)C1CCN(C(=O)N2CCOCC2)CC1,"inconclusive: 35.5 µM [inhibitor, single point]",–
CCNC(=O)COC(=O)c1cc(S(=O)(=O)N2CCCCC2)ccc1C,"inconclusive: 10 µM [inhibitor, single point]",–
CC(C)CC(=O)O/N=C1\C(=O)N(c2ccccc2)c2ccccc21,"inconclusive: 0.0056 µM [inhibitor, full curve, poor fit]",–
Cc1ccc(NC(=O)N(Cc2ccco2)Cc2cc3cc(C)cc(C)c3nc2Cl)cc1,"inconclusive: 44.7 µM [inhibitor, single point]",–
Nc1c(C(=O)Nc2ccc(F)cc2)sc2nc(-c3ccco3)ccc12,"inconclusive: 11.2 µM [inhibitor, partial curve]",–
COc1ccc(S(=O)(=O)/N=C2/C=CC(=O)C(C)=C2C)cc1,"inconclusive: 44.7 µM [inhibitor, single point]",–
CSc1nc(N(C)CCO)c2sc3nc(-c4ccco4)c4c(c3c2n1)CCC4,inactive,–
COc1ccc(-c2cc(C#N)nc(Cl)n2)cc1,inactive,–
CCOc1ccc(N2CC(C(=O)NC3CCSC3=O)CC2=O)cc1 (stereo not given),–,inactive: 52.3% [at 12.4 µM]
COCCNC(=O)[C@@]1(Cc2ccccc2)C=C[C@@H](C)N1C(=O)OC,"inconclusive: 2.82 µM [inhibitor, partial curve, poor fit]",–
Cc1ccc(C(=O)CSc2nnc(-c3snnc3C)n2C2CC2)cc1,"inconclusive: 3.16 µM [inhibitor, single point]",–
CSCCC(NC(=O)c1ccccc1)C(=O)OCC(=O)NCc1ccco1 (stereo not given),"inconclusive: 26.7 µM [inhibitor, single point]",–
O=C1OC(C(O)CO)C(O)=C1O (stereo not given),"inconclusive: 39.8 µM [inhibitor, single point]",–
CCOC(=O)C1CCN(C(=O)c2ccc(CNS(=O)(=O)c3ccc(C)cc3)cc2)CC1,"inconclusive: 15.8 µM [inhibitor, partial curve, poor fit]",–
COC(C[C@@H]1O[C@@H]1[C@H](O)[C@H](C)OCc1ccccc1)OC,inactive,–
C[C@H](Cc1ccc(O)c(O)c1)[C@@H](C)Cc1ccc(O)c(O)c1,"inconclusive: 17.8 µM [inhibitor, partial curve]",–
Nc1nc(N)nc(-c2cc([N+](=O)[O-])ccc2O)n1,inactive,–
C=CCn1c(SCC(=O)Nc2sccc2C(N)=O)nc2sc(C)c(C)c2c1=O,"inconclusive: 31.6 µM [inhibitor, partial curve]",–

SMILES,Potency,"activity change, negative = inhibition"
CCCCSC(=S)N(C)C1CCS(=O)(=O)C1 (stereo not given),"inconclusive: 0.01 µM [inhibitor, full curve, poor fit]",–
O=C(N/N=C/c1ccsc1)c1cc2ccccc2o1,inactive,–
OC[C@H]1OC([S-])[C@H](O)[C@@H](O)[C@@H]1O.[Au+] (stereo not given in full),"inconclusive: 1.78 µM [inhibitor, partial curve]",–
O=C(COC(=O)c1ccccn1)NC12CC3CC(CC(C3)C1)C2,"inconclusive: 10 µM [inhibitor, partial curve, poor fit]",–
Cc1nc(NC2CCCCC2)c2nc(-c3ccccc3)n(CCN3CCCCC3)c2n1,"inconclusive: 5.62 µM [inhibitor, single point]",–
COc1ccc2c(=O)cc(-c3ccc(O)cc3)oc2c1,"inconclusive: 44.7 µM [inhibitor, partial curve]",–
COCCn1c(-c2ccsc2)nc2c1c(=O)[nH]c(=O)n2CC(C)C,"inconclusive: 3.16 µM [inhibitor, single point]",–
Cc1cc(C)n(-c2ccc(C(=O)Nc3ccc(N4CCOCC4)cc3)cc2)n1,"inconclusive: 0.0631 µM [inhibitor, full curve, poor fit]",–
C=CCOC(=O)C(C(C)=O)C(NC(=O)OC)c1ccc(Cl)cc1 (stereo not given),"inconclusive: 3.16 µM [inhibitor, single point]",–
CC(C)(C)c1ccc(S(=O)(=O)N2CCN(CCC#N)CC2)cc1,"inconclusive: 31.6 µM [inhibitor, partial curve, poor fit]",–
Cc1ccc(S(=O)(=O)N[C@@H](CCc2ccccc2)CC(=O)C(C)(C)C)cc1,"inconclusive: 3.55 µM [inhibitor, partial curve, poor fit]",–
COc1ccc(C[C@H]2CN3C(=NC[C@H]3Cc3ccccc3)N2CCNC(=O)CCC2CCCCC2)cc1,"inconclusive: 44.7 µM [inhibitor, single point]",–
O=C(CSc1nnc(SCc2cccc3ccccc23)s1)N/N=C/c1c[nH]c2ccccc12,inactive,–
COc1ccc(CN2C(=O)/C(=C/c3ccc(-c4ccc(Cl)c(C(=O)O)c4)o3)SC2=S)cc1,"inconclusive: 44.7 µM [inhibitor, single point]",–
COc1ccc(NC(=O)c2cc(-c3ccco3)nc3ccccc23)cn1,"inconclusive: 11.9 µM [inhibitor, partial curve]",–
COc1cc(/C=C(\C#N)C(=O)Nc2ccc(C(=O)O)cc2)ccc1OC(=O)c1cccc(F)c1,"inconclusive: 23.8 µM [inhibitor, single point]",–
CCCCNC1=NCCS1,"inconclusive: 15.8 µM [inhibitor, partial curve]",–
O=C(Nc1ccccc1)C1=C[C@H](c2csc3ccccc23)C[C@H](OCc2ccc(CO)cc2)O1,"inconclusive: 7.08 µM [inhibitor, single point]",–
CC1CCCCN1S(=O)(=O)c1ccc(S(=O)(=O)N(Cc2ccccc2)Cc2ccco2)cc1 (stereo not given),"inconclusive: 8.91 µM [inhibitor, single point]",–
S=c1[nH]nc(Cn2c(-c3ccccn3)nc3ccccc32)n1-c1ccc2c(c1)OCCO2,inactive,–
CCC(=O)Oc1ccc(C/C(=N\O)c2ccc(O)cc2O)o1,"inconclusive: 6.31 µM [inhibitor, full curve]",–
